Results are given in words; binding and its absence hold for the method and conditions named. Some entries that bind do so weakly or less than the wild type.
Columns and labels:
[1] = target: recombinant human IL-2 (human) (UniProt P60568); experiment: BLI
[2] = target: recombinant human IL-2 (human) (UniProt P60568); experiment: ELISA and BLI

Amino acid sequences for entries named in this document (tags omitted). Residues count along the entry.
UniProt P60568, residues 21-153: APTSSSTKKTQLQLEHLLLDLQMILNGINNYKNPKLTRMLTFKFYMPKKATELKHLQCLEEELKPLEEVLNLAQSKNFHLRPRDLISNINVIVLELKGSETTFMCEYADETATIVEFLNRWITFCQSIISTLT

| binding [1] | binding [2] | Binder |
| --- | --- | --- |
| binds | – | Antibody B (antibody, human IgG1, kappa, V domains shown) VH: QVQLVESGGGVVQPGRSLRLSCAASGYTFSSYLIEWVRQAPGKGLEWVAVINPGSGGTNYADSVKGRFTISADKSKNTAYLQMNSLRAEDTAVYYCARWRGDGYYAYFDVWGQGTTVTVSS VL: EIVLTQSPATLSVSPGERATLSCRASQSVSYDGDSYMNWYQQKPGQAPRLLIYAASNLASGIPARFSGSGSGTEFTLTISSLQSEDAAVYYCQQSNEDPYTFGGGTKVEIKR |
| – | binds | Antibody A (antibody, human IgG1, kappa, N297A, V domains shown) VH: EVQLVQSGAEVKKPGESLKISCKGSGYAFTNYLIEWVRQMPGKGLEWMGVINPGSGGTNYNEKFKGQVTISADKSISTAYLQWSSLKASDTAMYYCARWRGEGYYAYFDVWGQGTTVTVSS VL: AIRLTQSPSSFSASTGDRVTITCKASQSVDYQGDSYMNWYQQKPGKAPKLLIYAASNLESGVPSRFSGSGSGTDFTLTISSLQSEDFATYYCQQSNEDPYTFGGGTKVEIKR |

From EP4431525A1 (Anaveon AG, dated 2024)
